Laboratory results: doi:10.1101/2024.11.18.624083
Read-outs that look alike come from different tables or passages of the source. These are yes or no findings as the source states them, for the method shown. In cells and extracts the contact can be indirect. Some entries that bind do so weakly or less than the wild type. For part of these data: Tags and fused reporters may be left off the sequences shown.

Chains of the proteins cited; added tags and fusions are not shown.
UniProt Q62318: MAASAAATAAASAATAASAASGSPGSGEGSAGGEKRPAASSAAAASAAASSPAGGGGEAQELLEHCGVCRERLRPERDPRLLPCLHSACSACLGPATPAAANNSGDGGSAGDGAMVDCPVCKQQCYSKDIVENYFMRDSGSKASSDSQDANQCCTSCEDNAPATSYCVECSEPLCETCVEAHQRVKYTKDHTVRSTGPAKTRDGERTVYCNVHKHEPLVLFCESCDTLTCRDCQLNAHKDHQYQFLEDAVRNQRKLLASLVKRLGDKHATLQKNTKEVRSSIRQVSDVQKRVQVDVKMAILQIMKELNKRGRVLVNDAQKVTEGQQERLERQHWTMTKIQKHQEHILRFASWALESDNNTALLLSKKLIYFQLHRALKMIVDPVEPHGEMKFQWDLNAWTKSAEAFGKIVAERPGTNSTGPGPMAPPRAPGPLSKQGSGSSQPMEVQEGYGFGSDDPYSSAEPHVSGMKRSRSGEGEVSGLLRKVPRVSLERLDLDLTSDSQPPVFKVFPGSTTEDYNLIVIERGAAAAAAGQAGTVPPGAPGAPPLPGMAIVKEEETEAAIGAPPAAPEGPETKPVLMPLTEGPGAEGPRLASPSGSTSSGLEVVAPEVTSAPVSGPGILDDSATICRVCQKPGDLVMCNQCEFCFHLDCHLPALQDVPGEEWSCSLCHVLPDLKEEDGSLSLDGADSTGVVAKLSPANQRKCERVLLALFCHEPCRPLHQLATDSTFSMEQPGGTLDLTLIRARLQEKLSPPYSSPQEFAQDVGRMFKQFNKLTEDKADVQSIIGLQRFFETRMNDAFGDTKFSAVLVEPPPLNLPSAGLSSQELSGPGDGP
UniProt P23198: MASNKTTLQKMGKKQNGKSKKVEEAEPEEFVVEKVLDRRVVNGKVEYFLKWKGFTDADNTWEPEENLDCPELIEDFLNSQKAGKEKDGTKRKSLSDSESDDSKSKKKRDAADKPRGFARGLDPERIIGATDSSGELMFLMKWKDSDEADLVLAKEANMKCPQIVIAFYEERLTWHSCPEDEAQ
UniProt Q13185: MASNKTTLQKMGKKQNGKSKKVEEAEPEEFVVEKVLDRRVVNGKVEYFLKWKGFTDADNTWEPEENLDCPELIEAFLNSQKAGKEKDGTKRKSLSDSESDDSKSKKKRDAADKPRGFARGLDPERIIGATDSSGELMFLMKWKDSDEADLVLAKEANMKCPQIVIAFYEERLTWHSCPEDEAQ
UniProt A6NHR9: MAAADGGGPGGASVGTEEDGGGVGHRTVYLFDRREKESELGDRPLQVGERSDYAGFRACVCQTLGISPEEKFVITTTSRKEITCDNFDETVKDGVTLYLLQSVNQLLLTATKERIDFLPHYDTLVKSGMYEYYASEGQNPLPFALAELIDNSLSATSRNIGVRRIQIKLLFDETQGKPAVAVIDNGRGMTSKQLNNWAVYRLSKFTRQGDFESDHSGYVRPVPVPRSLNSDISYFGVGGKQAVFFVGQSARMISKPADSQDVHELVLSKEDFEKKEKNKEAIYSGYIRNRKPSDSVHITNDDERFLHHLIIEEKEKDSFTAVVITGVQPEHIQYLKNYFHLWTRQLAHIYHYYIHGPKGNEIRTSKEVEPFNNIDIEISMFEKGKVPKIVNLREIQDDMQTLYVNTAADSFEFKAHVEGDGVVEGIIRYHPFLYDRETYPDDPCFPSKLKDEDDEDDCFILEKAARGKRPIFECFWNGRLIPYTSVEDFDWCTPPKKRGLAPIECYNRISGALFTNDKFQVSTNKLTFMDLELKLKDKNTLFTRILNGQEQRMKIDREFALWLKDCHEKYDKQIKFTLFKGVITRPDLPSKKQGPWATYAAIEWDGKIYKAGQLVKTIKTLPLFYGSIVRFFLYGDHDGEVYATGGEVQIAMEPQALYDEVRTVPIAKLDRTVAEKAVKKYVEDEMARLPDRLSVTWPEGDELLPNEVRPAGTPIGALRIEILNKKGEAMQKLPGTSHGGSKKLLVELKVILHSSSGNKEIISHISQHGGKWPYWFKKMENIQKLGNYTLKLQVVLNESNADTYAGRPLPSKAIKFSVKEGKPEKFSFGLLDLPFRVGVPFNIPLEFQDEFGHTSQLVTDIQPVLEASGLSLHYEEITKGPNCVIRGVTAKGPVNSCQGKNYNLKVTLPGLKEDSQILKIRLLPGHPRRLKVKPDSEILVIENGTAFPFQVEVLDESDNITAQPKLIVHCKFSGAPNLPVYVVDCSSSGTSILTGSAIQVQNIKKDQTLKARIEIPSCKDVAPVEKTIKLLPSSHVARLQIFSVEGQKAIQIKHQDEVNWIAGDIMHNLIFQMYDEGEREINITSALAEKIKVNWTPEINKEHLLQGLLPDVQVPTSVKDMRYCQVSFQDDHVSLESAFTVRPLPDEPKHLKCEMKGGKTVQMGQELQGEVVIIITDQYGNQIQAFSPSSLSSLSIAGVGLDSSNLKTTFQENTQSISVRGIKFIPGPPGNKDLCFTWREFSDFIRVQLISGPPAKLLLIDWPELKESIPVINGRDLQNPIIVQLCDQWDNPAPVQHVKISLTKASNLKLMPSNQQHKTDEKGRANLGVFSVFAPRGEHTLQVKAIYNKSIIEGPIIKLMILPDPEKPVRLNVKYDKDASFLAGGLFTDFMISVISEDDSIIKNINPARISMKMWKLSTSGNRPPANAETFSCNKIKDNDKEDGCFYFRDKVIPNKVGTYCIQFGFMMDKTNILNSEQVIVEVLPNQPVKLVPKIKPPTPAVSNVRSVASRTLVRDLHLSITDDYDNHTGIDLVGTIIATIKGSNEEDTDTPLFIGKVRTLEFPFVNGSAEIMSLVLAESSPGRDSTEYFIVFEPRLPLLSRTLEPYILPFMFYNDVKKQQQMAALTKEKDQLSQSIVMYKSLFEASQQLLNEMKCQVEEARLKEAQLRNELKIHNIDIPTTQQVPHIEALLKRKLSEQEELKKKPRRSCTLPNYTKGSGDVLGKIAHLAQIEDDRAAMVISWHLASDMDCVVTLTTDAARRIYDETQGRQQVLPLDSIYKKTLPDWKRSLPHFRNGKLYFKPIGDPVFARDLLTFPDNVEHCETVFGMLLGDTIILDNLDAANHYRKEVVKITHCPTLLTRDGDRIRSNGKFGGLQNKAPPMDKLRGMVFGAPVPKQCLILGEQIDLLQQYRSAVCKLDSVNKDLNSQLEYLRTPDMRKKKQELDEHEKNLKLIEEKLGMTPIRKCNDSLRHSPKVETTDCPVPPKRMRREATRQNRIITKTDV
UniProt Q13263: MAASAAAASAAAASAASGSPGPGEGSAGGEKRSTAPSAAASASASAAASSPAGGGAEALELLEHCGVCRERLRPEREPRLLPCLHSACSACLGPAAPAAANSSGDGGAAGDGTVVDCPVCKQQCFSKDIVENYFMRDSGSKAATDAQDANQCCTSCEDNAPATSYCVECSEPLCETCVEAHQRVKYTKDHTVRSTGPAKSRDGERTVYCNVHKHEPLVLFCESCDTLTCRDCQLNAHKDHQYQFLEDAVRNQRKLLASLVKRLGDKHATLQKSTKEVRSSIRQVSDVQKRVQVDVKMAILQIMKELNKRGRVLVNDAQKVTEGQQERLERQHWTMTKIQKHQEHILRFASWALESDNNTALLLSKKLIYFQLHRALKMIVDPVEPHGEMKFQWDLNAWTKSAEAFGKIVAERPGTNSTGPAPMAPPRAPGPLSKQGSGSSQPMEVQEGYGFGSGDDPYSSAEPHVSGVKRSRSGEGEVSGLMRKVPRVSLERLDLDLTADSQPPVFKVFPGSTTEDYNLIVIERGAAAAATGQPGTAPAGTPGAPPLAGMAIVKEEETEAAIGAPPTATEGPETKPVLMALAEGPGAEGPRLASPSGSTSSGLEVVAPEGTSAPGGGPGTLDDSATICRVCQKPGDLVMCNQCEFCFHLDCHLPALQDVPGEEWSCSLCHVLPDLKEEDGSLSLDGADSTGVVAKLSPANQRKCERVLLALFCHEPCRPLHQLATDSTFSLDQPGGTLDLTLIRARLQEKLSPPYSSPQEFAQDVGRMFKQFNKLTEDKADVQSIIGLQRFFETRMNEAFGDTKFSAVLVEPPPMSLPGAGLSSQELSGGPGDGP

T1: GFP-tagged Lrif1 long isoform, wild type (expressed in HEK293T) (mouse) (UniProt Q8CDD9)
T1 sequence: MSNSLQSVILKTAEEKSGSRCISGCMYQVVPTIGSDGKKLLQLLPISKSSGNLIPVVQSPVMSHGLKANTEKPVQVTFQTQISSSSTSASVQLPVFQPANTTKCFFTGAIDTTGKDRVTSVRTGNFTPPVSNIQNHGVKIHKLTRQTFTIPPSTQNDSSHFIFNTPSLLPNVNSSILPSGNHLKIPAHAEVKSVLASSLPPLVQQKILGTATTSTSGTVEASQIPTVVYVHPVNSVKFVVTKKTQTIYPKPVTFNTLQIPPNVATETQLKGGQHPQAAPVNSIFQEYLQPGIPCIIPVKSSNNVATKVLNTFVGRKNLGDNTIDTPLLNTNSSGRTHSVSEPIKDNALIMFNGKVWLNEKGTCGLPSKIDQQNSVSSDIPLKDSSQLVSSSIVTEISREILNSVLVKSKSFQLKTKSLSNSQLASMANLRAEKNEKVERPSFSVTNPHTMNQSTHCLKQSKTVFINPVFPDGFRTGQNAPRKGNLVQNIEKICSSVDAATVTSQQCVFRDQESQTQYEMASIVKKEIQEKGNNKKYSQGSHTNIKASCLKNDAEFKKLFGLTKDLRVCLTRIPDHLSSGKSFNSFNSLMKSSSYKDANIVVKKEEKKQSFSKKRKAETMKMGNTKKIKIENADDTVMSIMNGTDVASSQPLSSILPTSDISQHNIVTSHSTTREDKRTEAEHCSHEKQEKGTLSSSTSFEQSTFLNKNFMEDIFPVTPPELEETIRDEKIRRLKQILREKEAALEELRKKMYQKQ

T2: GFP-tagged Lrif1 long isoform, mPVL mutant (V567D/L569E) (mouse) (UniProt Q8CDD9)
T2 sequence: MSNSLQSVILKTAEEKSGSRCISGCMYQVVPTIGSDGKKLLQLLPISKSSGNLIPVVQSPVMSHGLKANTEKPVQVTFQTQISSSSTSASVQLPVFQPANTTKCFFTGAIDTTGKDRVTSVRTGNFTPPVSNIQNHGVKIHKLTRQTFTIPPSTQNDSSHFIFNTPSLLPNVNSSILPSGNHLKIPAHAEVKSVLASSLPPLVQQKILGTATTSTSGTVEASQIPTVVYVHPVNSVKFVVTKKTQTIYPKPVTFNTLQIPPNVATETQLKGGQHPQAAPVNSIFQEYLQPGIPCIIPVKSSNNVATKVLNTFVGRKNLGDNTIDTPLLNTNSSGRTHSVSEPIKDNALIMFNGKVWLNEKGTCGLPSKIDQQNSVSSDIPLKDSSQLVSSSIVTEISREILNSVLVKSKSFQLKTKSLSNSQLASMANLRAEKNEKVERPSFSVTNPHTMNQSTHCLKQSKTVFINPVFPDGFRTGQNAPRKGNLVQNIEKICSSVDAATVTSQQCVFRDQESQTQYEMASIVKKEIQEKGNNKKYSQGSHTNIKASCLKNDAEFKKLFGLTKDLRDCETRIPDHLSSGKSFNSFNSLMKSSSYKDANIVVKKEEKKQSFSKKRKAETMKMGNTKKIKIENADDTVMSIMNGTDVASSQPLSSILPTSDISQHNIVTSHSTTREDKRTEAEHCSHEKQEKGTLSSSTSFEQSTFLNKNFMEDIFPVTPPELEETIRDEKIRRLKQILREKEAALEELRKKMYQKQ

T3: GFP-tagged Lrif1 long isoform, m1 mutant (R732E/L733A/K734E) (mouse) (UniProt Q8CDD9)
T3 sequence: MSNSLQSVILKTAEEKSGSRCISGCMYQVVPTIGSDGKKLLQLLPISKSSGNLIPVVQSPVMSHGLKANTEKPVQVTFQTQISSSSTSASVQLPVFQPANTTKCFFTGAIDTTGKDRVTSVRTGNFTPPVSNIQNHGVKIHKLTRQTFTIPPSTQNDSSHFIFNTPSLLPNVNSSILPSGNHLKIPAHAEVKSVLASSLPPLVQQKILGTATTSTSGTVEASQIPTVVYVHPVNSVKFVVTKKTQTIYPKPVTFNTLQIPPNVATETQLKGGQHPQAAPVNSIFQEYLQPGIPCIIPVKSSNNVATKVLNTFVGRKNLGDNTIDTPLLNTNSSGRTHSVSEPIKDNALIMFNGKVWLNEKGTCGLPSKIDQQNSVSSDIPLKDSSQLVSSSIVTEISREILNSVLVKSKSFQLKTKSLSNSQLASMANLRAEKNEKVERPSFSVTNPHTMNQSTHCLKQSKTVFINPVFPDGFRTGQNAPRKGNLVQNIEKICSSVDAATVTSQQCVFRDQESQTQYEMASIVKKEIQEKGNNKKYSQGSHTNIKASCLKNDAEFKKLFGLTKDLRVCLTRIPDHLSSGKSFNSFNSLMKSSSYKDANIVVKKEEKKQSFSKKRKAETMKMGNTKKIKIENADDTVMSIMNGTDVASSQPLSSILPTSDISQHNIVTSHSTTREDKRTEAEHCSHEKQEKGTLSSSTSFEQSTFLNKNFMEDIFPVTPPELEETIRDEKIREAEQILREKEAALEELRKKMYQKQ


What was measured:
Assay in all cases: co-IP
[1] = molecular target: Trim28 (tripartite motif-containing protein 28), endogenous in mESCs (mouse (endogenous in E14 mESCs)) (UniProt Q62318)
[2] = molecular target: T1, GFP-tagged Lrif1 long isoform, wild type (expressed in HEK293T) (mouse)
[3] = molecular target: T2, GFP-tagged Lrif1 long isoform, mPVL mutant (V567D/L569E) (mouse)
[4] = molecular target: T3, GFP-tagged Lrif1 long isoform, m1 mutant (R732E/L733A/K734E) (mouse)
[5] = molecular target: Trim28 (tripartite motif-containing protein 28), endogenous in mESCs (mouse (endogenous in E14 mESCs)) (UniProt Q62318); remark: listed apart in the source

Row | Molecule | binding [1] | binding [2] | binding [3] | binding [4] | binding [5]
1 | Cbx3, endogenous in mESCs (from UniProt P23198 1-183) | binds |  |  |  | 
2 | human CBX3/HP1γ, endogenous in HEK293T (from UniProt Q13185 1-183) |  | binds | no binding |  | 
3 | human SMCHD1, endogenous in HEK293T (from UniProt A6NHR9 1-2005) |  | binds |  | no binding | 
4 | human TRIM28, endogenous in HEK293T (from UniProt Q13263 1-835) |  | binds | binds | binds | 
5 | Lrif1 long isoform, endogenous in mESCs (protein, UniProt Q8CDD9 1-755) MSNSLQSVILKTAEEKSGSRCISGCMYQVVPTIGSDGKKLLQLLPISKSSGNLIPVVQSPVMSHGLKANTEKPVQVTFQTQISSSSTSASVQLPVFQPANTTKCFFTGAIDTTGKDRVTSVRTGNFTPPVSNIQNHGVKIHKLTRQTFTIPPSTQNDSSHFIFNTPSLLPNVNSSILPSGNHLKIPAHAEVKSVLASSLPPLVQQKILGTATTSTSGTVEASQIPTVVYVHPVNSVKFVVTKKTQTIYPKPVTFNTLQIPPNVATETQLKGGQHPQAAPVNSIFQEYLQPGIPCIIPVKSSNNVATKVLNTFVGRKNLGDNTIDTPLLNTNSSGRTHSVSEPIKDNALIMFNGKVWLNEKGTCGLPSKIDQQNSVSSDIPLKDSSQLVSSSIVTEISREILNSVLVKSKSFQLKTKSLSNSQLASMANLRAEKNEKVERPSFSVTNPHTMNQSTHCLKQSKTVFINPVFPDGFRTGQNAPRKGNLVQNIEKICSSVDAATVTSQQCVFRDQESQTQYEMASIVKKEIQEKGNNKKYSQGSHTNIKASCLKNDAEFKKLFGLTKDLRVCLTRIPDHLSSGKSFNSFNSLMKSSSYKDANIVVKKEEKKQSFSKKRKAETMKMGNTKKIKIENADDTVMSIMNGTDVASSQPLSSILPTSDISQHNIVTSHSTTREDKRTEAEHCSHEKQEKGTLSSSTSFEQSTFLNKNFMEDIFPVTPPELEETIRDEKIRRLKQILREKEAALEELRKKMYQKQ |  |  |  |  | binds
